Data: patent US12384765B2, “Catecholamine prodrugs for use in the treatment of Parkinson's Disease” (H. Lundbeck A/S, priority 2019, dated 2025)
At least one structure is not confirmed: it was looked up by name or label, or the drawing left a doubt.

Test system: male CD rats
Test: Rat locomotor activity (hyperactivity) assay, open field
Format: in vivo
Conditions: (Id-ia) 10 to 300 μg/kg p.o.; apomorphine 3 mg/kg s.c.; pramipexole 0.3 mg/kg s.c.
Method: In total, 206 male CD rats (Charles River, Germany) weighing 200-250 grams (165-190 grams upon arrival) were used in the study. Animals were housed at a standard temperature (22±1° C.) and in a light-controlled environment (lights on from 7 am to 8 pm) with ad libitum access to food and water. The experiment described below was performed in accordance with the standard operating procedures of Charles River Discovery Research Services Finland Ltd. and in accordance with the national Animal Experiment Board of Finland (Elainkoelautakunta, ELLA) authority on animal testing.
The test device is a square Plexiglass-arena (measuring 40×40×40 cm), in which the movement paths of the rats are recorded by an activity monitor (Med. Associates Inc.). Before the test period is initiated, rats are habituated to their test cage for 60 minutes. Upon completion of habituation, animals were treated with either compound or vehicle and placed back into the open field apparatus. The main test parameter measured is ambulatory distance (recorded in 5 minute segments). Overall time of measurement after receiving initial treatment was 360 minutes. Total follow up period in the study was 420 minutes, including 60 minutes of habituation.
Blood samples were taken and processed and analyzed as described under PK experiments in rats in Example 3.

Question: Which results are given for `CN1CCc2cccc3c2[C@H]1Cc1ccc(O)c(O)c1-3` [apomorphine, reference compound]?
Answer: effect on locomotor activity: hyperactivity; start of locomotor effect post-administration: immediate
